Measurements reported in PubChem BioAssay AID504791 (Drosophila RNAi Screening Center, 2011).
The screen tested about 23,000 reagents; shown is an unselected part of those with a known target gene and a result. Of all reagents, 199 (0.86%) got an active call. 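Plate-scaled ratios behind the calls are not deposited; printed light signals are raw; many rows marked increased or decreased are still called inactive.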 Entries without a mark were called inactive. Not stated in the record: the direction of the score.

Aim: 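Genes whose knock-down strengthens or weakens small-RNA reporter silencing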 (primary screen)
Cell system: Drosophila S2-derived reporter cells
Reagents: long dsRNA against Drosophila genes, about 150-250 ng dsRNA per well (siRNA assay); about 80-120 ng (miRNA assay)
Duration: about 5 days (siRNA assay); about 4 days (miRNA assay)
Treatment: copper sulfate induction of reporters: 25 µM (siRNA assay); 200 mM stated (miRNA assay), 1-2 days before reading
Measurement: 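Dual luciferase assay: Renilla to firefly signal ratio in each well, scaled to the mean ratio of its plate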
Units: stable assay Renilla, run 1 in luminescence; stable assay firefly, run 1 in luminescence
Rule for the call: 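First-pass picks had plate-scaled ratios over 1.5 for the siRNA assay, over 1.6 for the miRNA assay, or under 0.6; two distinct dsRNAs had to score alike on retest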

Arl5 (GeneID 38931) [DRSC10785] gave stable assay Renilla, run 1 = 7639; stable assay firefly, run 1 = 4.78e5. Depletion of CG4497 (GeneID 34001) [DRSC02754] resulted in: stable assay Renilla, run 1 = 15382; stable assay firefly, run 1 = 1.71e5. Oli (GeneID 35066) [DRSC02866] showed stable assay Renilla, run 1 = 6918; stable assay firefly, run 1 = 1.34e6. For CG9875 (GeneID 37698) [DRSC04585], the values are stable assay Renilla, run 1 = 5370; stable assay firefly, run 1 = 3.20e5. For Cnx14D (GeneID 32620) [DRSC20214] the deposit lists stable assay Renilla, run 1 = 5764; stable assay firefly, run 1 = 5.09e5. After knock-down of Atg17 (GeneID 40700) [DRSC12221], the screen gave stable assay Renilla, run 1 = 5991; stable assay firefly, run 1 = 3.24e5.

CG13067 (GeneID 39785) [DRSC09950] showed stable assay Renilla, run 1 = 6662; stable assay firefly, run 1 = 4.22e5. Knock-down of RpLP2 (GeneID 36855) [DRSC07539] gave: stable assay Renilla, run 1 = 7114; stable assay firefly, run 1 = 3.22e5. After knock-down of RpLP2 (GeneID 36855) [DRSC28510], the screen gave miRNA reporter change reporter ratio lowered past the hit cutoff. Gasz (GeneID 35795) [DRSC06829] showed stable assay Renilla, run 1 = 7610; stable assay firefly, run 1 = 3.79e5. For CG12723 (GeneID 32271) [DRSC19499], the values are stable assay Renilla, run 1 = 2487; stable assay firefly, run 1 = 2.78e5. After knock-down of CG2336 (GeneID 40804) [DRSC12581], the record shows stable assay Renilla, run 1 = 7226; stable assay firefly, run 1 = 4.27e5.

2 consecutive reagents already listed:
RpLP2 (GeneID 36855) [DRSC07539] → stable assay Renilla, run 1: 7114; stable assay firefly, run 1: 3.22e5
RpLP2 (GeneID 36855) [DRSC28510] → miRNA reporter change: reporter ratio lowered past the hit cutoff

Continued.
With knock-down of CG3679 (GeneID 32591) [DRSC19346], the record shows stable assay Renilla, run 1 = 7826; stable assay firefly, run 1 = 5.93e5. Depletion of bonsai (GeneID 37587) [DRSC04453] gave: stable assay Renilla, run 1 = 6422; stable assay firefly, run 1 = 3.80e5. Knock-down of CG13185 (GeneID 36268) [DRSC06310] gave: stable assay Renilla, run 1 = 9224; stable assay firefly, run 1 = 5.75e5. After knock-down of CG33169 (GeneID 40504) [DRSC11853], the screen gave stable assay Renilla, run 1 = 5943; stable assay firefly, run 1 = 4.97e5. For CG33341 (GeneID 2768683) [DRSC22887], the entry reads stable assay Renilla, run 1 = 4983; stable assay firefly, run 1 = 4.13e5. Against Atac3 (GeneID 38055) [DRSC08579] the deposit lists stable assay Renilla, run 1 = 6411; stable assay firefly, run 1 = 3.59e5.

For Bre1 (GeneID 38652) [DRSC09742], the entry reads stable assay Renilla, run 1 = 9848; stable assay firefly, run 1 = 6.09e5. For CG14538 (retired record) (GeneID 34056) [DRSC02396] the deposit lists stable assay Renilla, run 1 = 7378; stable assay firefly, run 1 = 4.65e5. Knock-down of CG14538 (retired record) (GeneID 34056) [DRSC29424] gave: miRNA reporter change reporter ratio lowered past the hit cutoff. For CG31921 (GeneID 319027) [DRSC00013], the entry reads stable assay Renilla, run 1 = 5560; stable assay firefly, run 1 = 4.17e5. For Pdhb (GeneID 43437) [DRSC14420], the entry reads stable assay Renilla, run 1 = 8878; stable assay firefly, run 1 = 5.04e5. For spab (GeneID 35901) [DRSC07112], the values are stable assay Renilla, run 1 = 6874; stable assay firefly, run 1 = 3.51e5.

chinmo (GeneID 33343) [DRSC00292] gave stable assay Renilla, run 1 = 71069; stable assay firefly, run 1 = 2.22e5. Knock-down of chinmo (GeneID 33343) [DRSC00485] gave: stable siRNA reporter change reporter ratio lowered past the hit cutoff; stable assay Renilla, run 1 = 3452; stable assay firefly, run 1 = 4.45e5. chinmo (GeneID 33343) [DRSC00509] scored stable assay Renilla, run 1 = 5719; stable assay firefly, run 1 = 4.04e5. chinmo (GeneID 33343) [DRSC22413] gave stable assay Renilla, run 1 = 4127; stable assay firefly, run 1 = 3.54e5. After knock-down of MED17 (GeneID 42175) [DRSC16889], the record shows stable assay Renilla, run 1 = 5579; stable assay firefly, run 1 = 2.38e5. NiPp1 (GeneID 44748) [DRSC07307] scored stable assay Renilla, run 1 = 13229; stable assay firefly, run 1 = 3.88e5.

With knock-down of CG11168 (GeneID 42981) [DRSC14292], the record shows stable assay Renilla, run 1 = 8611; stable assay firefly, run 1 = 3.06e5. After knock-down of sti (GeneID 39429) [DRSC09739], the record shows stable assay Renilla, run 1 = 6415; stable assay firefly, run 1 = 4.81e5. sti (GeneID 39429) [DRSC09740] showed stable assay Renilla, run 1 = 6044; stable assay firefly, run 1 = 3.93e5. Against pigs (GeneID 31596) [DRSC17472], the entry reads stable assay Renilla, run 1 = 5699; stable assay firefly, run 1 = 4.12e5. pigs (GeneID 31596) [DRSC18334] showed stable assay Renilla, run 1 = 5711; stable assay firefly, run 1 = 4.23e5. pigs (GeneID 31596) [DRSC18335] scored stable assay Renilla, run 1 = 5671; stable assay firefly, run 1 = 3.55e5.
